Experimental data published in PMC10696739.
These are yes or no findings as the source states them, for the method shown. Binding seen in cells or lysates may run through a third protein. Some results given as binding are weak or reduced against the parent protein; the word gives no strength.

By UniProt entry, the sequences of proteins in these tests, tags left out.
UniProt Q61501: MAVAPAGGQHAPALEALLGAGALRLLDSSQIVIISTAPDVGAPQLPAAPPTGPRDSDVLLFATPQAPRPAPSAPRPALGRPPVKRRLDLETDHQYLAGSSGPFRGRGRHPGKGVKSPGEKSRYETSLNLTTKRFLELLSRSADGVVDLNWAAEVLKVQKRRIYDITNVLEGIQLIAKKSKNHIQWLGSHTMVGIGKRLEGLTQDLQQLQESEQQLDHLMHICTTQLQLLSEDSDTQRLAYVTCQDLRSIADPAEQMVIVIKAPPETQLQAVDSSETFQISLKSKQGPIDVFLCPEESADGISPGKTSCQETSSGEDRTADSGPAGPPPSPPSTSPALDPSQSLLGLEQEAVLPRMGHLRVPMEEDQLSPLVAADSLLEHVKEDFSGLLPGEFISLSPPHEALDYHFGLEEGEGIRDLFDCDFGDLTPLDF
UniProt Q6NVF0: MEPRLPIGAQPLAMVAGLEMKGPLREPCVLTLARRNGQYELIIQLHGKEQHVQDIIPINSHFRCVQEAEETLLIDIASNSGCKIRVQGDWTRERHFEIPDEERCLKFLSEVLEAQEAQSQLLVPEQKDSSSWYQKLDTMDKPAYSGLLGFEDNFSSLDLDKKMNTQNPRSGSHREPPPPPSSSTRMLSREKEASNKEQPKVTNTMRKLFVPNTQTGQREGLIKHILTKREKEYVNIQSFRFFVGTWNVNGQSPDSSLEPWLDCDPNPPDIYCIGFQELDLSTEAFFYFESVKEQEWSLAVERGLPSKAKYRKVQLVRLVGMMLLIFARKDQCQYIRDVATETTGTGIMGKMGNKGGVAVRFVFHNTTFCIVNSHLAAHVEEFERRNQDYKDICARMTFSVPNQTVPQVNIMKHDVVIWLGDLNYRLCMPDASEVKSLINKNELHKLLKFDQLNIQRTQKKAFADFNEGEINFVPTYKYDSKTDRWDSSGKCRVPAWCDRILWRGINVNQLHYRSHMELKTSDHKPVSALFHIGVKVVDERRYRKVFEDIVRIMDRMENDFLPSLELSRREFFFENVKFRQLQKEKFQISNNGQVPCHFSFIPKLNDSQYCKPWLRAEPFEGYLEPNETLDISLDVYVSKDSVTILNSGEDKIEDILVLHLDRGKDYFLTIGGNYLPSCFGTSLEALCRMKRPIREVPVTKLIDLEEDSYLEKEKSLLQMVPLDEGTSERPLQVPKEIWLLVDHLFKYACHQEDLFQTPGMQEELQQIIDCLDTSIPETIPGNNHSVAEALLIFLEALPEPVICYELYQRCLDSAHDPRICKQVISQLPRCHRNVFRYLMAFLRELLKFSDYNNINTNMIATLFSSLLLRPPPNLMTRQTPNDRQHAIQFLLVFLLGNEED

Experiments:
[1] = target: T1, CDKN2D (mouse (endogenous in MPC5)) (UniProt Q60773); test: co-IP; anti-OCRL1, anti-CCND1, anti-E2F1 or anti-CDKN2D antibody (control IgG) on Protein-G Dynabeads in PBS with 0.02% Tween; total cell lysate of cultured podocytes added, rotated 24 h; eluted proteins detected by immunoblot; endogenous proteins
T1 sequence: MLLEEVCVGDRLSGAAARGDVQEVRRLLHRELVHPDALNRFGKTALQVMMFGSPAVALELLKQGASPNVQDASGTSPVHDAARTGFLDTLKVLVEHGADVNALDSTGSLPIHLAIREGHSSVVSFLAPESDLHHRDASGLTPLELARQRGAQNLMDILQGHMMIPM

[2] = target: E2F1 (mouse (endogenous in MPC5)) (UniProt Q61501); test: as above

- binding [1]: binds
- binding [2]: binds
Substance: OCRL inositol polyphosphate-5-phosphatase (OCRL1) (from UniProt Q6NVF0 1-900)
